Patent US20190241895

How the values were obtained:
[1] = test system: secretory immunoglobulin A (sIgA) (Homo sapiens); assay: pull-down; conditions: primer-bound SA beads control; purified native protein; protein details: MP Biomedicals Cappel Products cat 55905; label: 5' biotin; single-stranded DNA
[2] = test system: secretory immunoglobulin A (sIgA) in saliva (Homo sapiens); assay: pull-down; conditions: primer-bound SA beads control, saliva; protein in an extract; protein details: human saliva specimen, 90% final; label: 5' biotin; single-stranded DNA

“GGATACCTTAACGCCGCCTATTG [biotinylated primer]”: no binding [1]; no binding [2].

The exact form of at least one protein or probe is not confirmed. Negatives hold for the conditions tested. For some assays here: Results from cells or extracts need not show a direct contact.
